Experimental data reported in article PMC12431657, “Discovery and mechanistic insights of dibenzoylmethane as a broad spectrum inhibitor of coronavirus” (PLOS Pathogens, 2025).
Where a name gives a salt, the structure may show the parent alone. Read-outs that look alike come from different tables or passages of the source. Out of some 3,300 compounds screened, about 95 (3%) showed an effect of 50% or more. The list shows a part of the results.

Tested on: HCoV-229E
Set-up: species or system Huh-7; HTS, protection from HCoV-229E induced cell death, luminescent cell viability (CellCounting-Lite 2.0), inhibition rate
Details: 24 h post infection, 1 h compound pre-incubation, 10 µM, inhibitor

| SMILES | 229E Inhibition rate [%] | 229E Inhibition rate (229E Inhibition rate, 24 h) [%] |
| --- | --- | --- |
| C[C@@H]1O[C@@H](Oc2c(-c3ccc(O)cc3)oc3cc(O)cc(O)c3c2=O)[C@H](O)[C@H](O)[C@H]1O [Afzelin] | 13.3 | – |
| C=C1C(=O)O[C@@H]2C[C@@]3(C)CCCC(=C)[C@@H]3C[C@H]12 [Isoalantolactone] | 20.6 | – |
| COC(=O)[C@]12CCC(C)(C)C[C@H]1C1=CC[C@@H]3[C@@]4(C)CCC(=O)C(C)(C)[C@@H]4CC[C@@]3(C)[C@]1(C)CC2 [Methyl oleanonate] | 3.7 | – |
| C[N+](C)(C)CCCC(=O)O [(3-Carboxypropyl)trimethylammonium chloride] | 14.3 | – |
| CO[C@H]1C[C@H](O[C@H]2CC[C@]3(C)[C@H]4CC[C@]5(C)[C@@H](C6=CC(=O)OC6)CC[C@]5(O)[C@@H]4CC[C@]3(O)C2)O[C@H](C)[C@H]1O [Periplocymarin] | 22 | – |
| CCCCCCCC(=O)OCC(COC(=O)CCCCCCC)OC(=O)CCCCCCC [Tricaprilin] | 21.7 | – |
| COC(=O)/C=C/c1ccc(O)cc1 [(E)-Methyl 4-coumarate] | – | 2.9 |
| CC[C@H](C)[C@H](N)C(=O)O [L-Isoleucine] | 10.2 | – |
| COc1ccc2c(c1O)-c1c(OC)c(OC)cc3c1[C@H](C2)N(C)CC3 [Isocorydine] | 23.1 | – |
| O=c1[nH]cnc2nc[nH]c12 [Hypoxanthine] | 20.4 | – |
| Nc1ncnc2c1ncn2[C@@H]1O[C@H](CO)[C@@H](O)[C@@H]1O [Vidarabine] | 17.7 | – |
| C[C@H](CCC(=O)NCC(=O)O)[C@H]1CC[C@H]2[C@@H]3C[C@H](O)[C@@H]4C[C@H](O)CC[C@]4(C)[C@H]3CC[C@]12C [Glycohyodeoxycholic acid] | 0 | – |
| CC(=O)OCC1=CO[C@@H](OC(=O)CC(C)C)[C@H]2C1=C[C@H](OC(=O)CC(C)(C)OC(C)=O)[C@]21CO1 [Acevaltrate] | 5.4 | – |
| COc1cc(C(=O)O[C@H]2[C@@H]3C=CO[C@@H](O[C@@H]4O[C@H](CO)[C@@H](O)[C@H](O)[C@H]4O)[C@@H]3[C@@]3(CO)O[C@@H]23)ccc1O [Picroside II] | 10.1 | – |
| CC(C)(O)CC[C@@H](O)[C@](C)(O)[C@H]1CC=C2C3=C(CC[C@@]21C)[C@@]1(C)C[C@H](O)[C@H](O)C[C@H]1C(=O)C3 [Podecdysone B] | 11.2 | – |
| NC(=O)NC(NC(N)=O)C(=O)O [Allantoic acid] | 26.2 | – |
| CCCCCCCCCC(=O)N[C@@H](Cc1c[nH]c2ccccc12)C(=O)N[C@H](CC(N)=O)C(=O)N[C@@H](CC(=O)O)C(=O)N[C@@H]1C(=O)NCC(=O)N[C@@H](CCCN)C(=O)N[C@@H](CC(=O)O)C(=O)N[C@H](C)C(=O)N[C@@H](CC(=O)O)C(=O)NCC(=O)N[C@H](CO)C(=O)N[C@@H]([C@H](C)CC(=O)O)C(=O)N[C@@H](CC(=O)c2ccccc2N)C(=O)O[C@@H]1C [Daptomycin] | 23.2 | – |
| C[C@H](O)CC(=O)O [(S)-3-Hydroxybutanoic acid] | 16.6 | – |
| C[C@@H]1CC[C@@]2(NC1)O[C@H]1C[C@H]3[C@@H]4CC=C5C[C@@H](O)CC[C@]5(C)[C@H]4CC[C@]3(C)[C@H]1[C@@H]2C [Solasodine] | 6.8 | – |
| C[C@]12CCC(=O)C=C1CC[C@@H]1[C@@H]2CC[C@@]2(C)[C@H]1CC[C@]2(O)C(=O)CO [Cortodoxone] | 27.9 | – |
| Cc1c(N)nc([C@H](CC(N)=O)NC[C@H](N)C(N)=O)nc1C(=O)N[C@H](C(=O)N[C@H](C)[C@@H](O)[C@H](C)C(=O)N[C@H](C(=O)NCCc1nc(-c2nc(C(=O)NCCC[S+](C)C)cs2)cs1)[C@@H](C)O)[C@@H](O[C@@H]1O[C@@H](CO)[C@@H](O)[C@H](O)[C@@H]1O[C@H]1O[C@H](CO)[C@@H](O)[C@H](OC(N)=O)[C@@H]1O)c1cnc[nH]1 [Bleomycin (sulfate)] | 12.9 | – |
| CC(C)(O)CCC(=O)[C@](C)(O)C1[C@H](O)C[C@@]2(C)[C@@H]3CC=C4[C@@H](C[C@H](O)[C@@H](O)C4(C)C)[C@]3(C)C(=O)C[C@]12C (stereo partly drawn) [Cucurbitacin IIb] | 13.2 | – |
| O=C1CC(C(=O)O)c2c1oc(=O)c1cc(O)c(O)c(O)c21 (stereo not drawn) [Brevifolincarboxylic acid] | 6.4 | – |
| Nc1nc(O)c2[nH]nnc2n1 [8-Azaguanine] | 27.3 | – |
| C[S@@+]([O-])CCCCN=C=S [(R)-sulforaphane] | 54 | – |
| COc1cc(O)cc(/C=C/c2ccc(O)cc2)c1 [Pinostilbene] | 20.3 | – |
| C[C@H](CCC(=O)O)[C@H]1CC[C@H]2[C@@H]3[C@H](O)C[C@@H]4CC(=O)CC[C@]4(C)[C@H]3C[C@H](O)[C@]12C [3-Oxocholic acid] | 4.2 | – |

| SMILES | 229E Inhibition rate [%] | 229E Inhibition rate (229E Inhibition rate, 24 h) [%] |
| --- | --- | --- |
| CN[C@H](CC(C)C)C(=O)N[C@H]1C(=O)N[C@@H](CC(N)=O)C(=O)N[C@H]2C(=O)N[C@H]3C(=O)N[C@H](C(=O)N[C@H](C(=O)O)c4cc(O)cc(O)c4-c4cc3ccc4O)[C@H](O)c3ccc(c(Cl)c3)Oc3cc2cc(c3O[C@@H]2O[C@H](CO)[C@@H](O)[C@H](O)[C@H]2O[C@H]2C[C@](C)(N)[C@H](O)[C@H](C)O2)Oc2ccc(cc2Cl)[C@H]1O [Vancomycin (hydrochloride)] | – | 13.7 |
| C[Se]C[C@H](N)C(=O)O [Se-Methylselenocysteine] | 9.7 | – |
| O=C(O)[C@@H]1C[C@@H](O)CN1 [L-Hydroxyproline,BioReagent, suitable for cell culture] | 14.9 | – |
| CC(C)(CO)[C@@H](O)C(=O)NCCC(=O)O [D-Pantothenic acid (hemicalcium salt)] | – | 22.5 |
| C[C@H]1[C@H](C)CC[C@]2(C(=O)O)CC[C@]3(C)C(=CC[C@@H]4[C@@]5(C)CC[C@H](O)C(C)(C)[C@@H]5CC[C@]43C)[C@H]12 [Ursolic acid] | 17.1 | – |
| Oc1cc(O)c2c(c1)O[C@]1(c3ccc(O)c(O)c3)Oc3cc(O)c4c(c3[C@H]2C1O)OC(c1ccc(O)c(O)c1)C(O)C4 (stereo partly drawn) [Procyanidin A1] | 8.3 | – |
| NC1(C(=O)O)CC1 [1-Aminocyclopropane-1-carboxylic acid] | 14 | – |
| COc1ccc(-c2cc(=O)c3c(O)c(OC)c(OC)c(OC)c3o2)cc1 [Gardenin B] | 22.6 | – |
| CCCCCCCCCCCCCC1=C(O)C(=O)C=C(O)C1=O [Rapanone] | 9 | – |
| C[C@H](CCC(=O)O)[C@H]1CC[C@H]2[C@@H]3CC[C@@H]4C[C@H](O)CC[C@]4(C)[C@H]3C[C@H](O)[C@]12C [Deoxycholic acid] | – | 6.3 |
| C[C@H](O)C(=O)O [L-Lactic acid] | 58.1 | – |
| CC(=O)c1cccc(O)c1 [3-Hydroxyacetophenone] | 21.5 | – |
| Cc1cc2nc3c(=O)[nH]c(=O)nc-3n(C[C@H](O)[C@H](O)[C@H](O)CO)c2cc1C [Riboflavin] | 22.6 | – |
| C=CCSSCC=C [Diallyl disulfide] | 13.8 | – |
| Nc1ccncc1O [3-Hydroxy-4-aminopyridine] | 16.7 | – |
| O=C1C[C@@H](c2ccc(O)cc2)Oc2cc(O[C@@H]3O[C@H](CO)[C@@H](O)[C@H](O)[C@H]3O)cc(O)c21 [Prunin] | 10.7 | – |
| CCCCC/C=C/C=C/C(=O)NCC(C)C [Pellitorine] | 14.2 | – |
| CC(C)[C@]12O[C@H]1[C@@H]1O[C@]13[C@]1(O[C@H]1C[C@H]1C4=C(CC[C@@]13C)C(=O)OC4)[C@@H]2O [Triptolide] | 7.2 | – |
| OC1OC[C@@H](O[C@@H]2OC[C@@H](O[C@@H]3OC[C@@H](O)[C@H](O)[C@H]3O)[C@H](O)[C@H]2O)[C@H](O)[C@H]1O (stereo partly drawn) [Xylotriose] | 28.5 | – |
| O=C(/C=C/c1ccc(O)c2c1[C@H](C(=O)O)[C@@H](c1ccc(O)c(O)c1)O2)O[C@H](Cc1ccc(O)c(O)c1)C(=O)O [Lithospermic acid] | 26.7 | – |
| C[C@@H]1O[C@@H](O[C@@H]2[C@@H](O)[C@H](OCCc3ccc(O)c(O)c3)O[C@H](COC(=O)/C=C/c3ccc(O)c(O)c3)[C@H]2O)[C@H](O)[C@H](O)[C@H]1O [Isoacteoside] | 4.2 | – |
| Oc1ccc(CCc2cc(O)cc(O)c2)cc1 [Dihydroresveratrol] | 10.7 | – |
| C/C=C/C[C@@H](C)[C@@H](O)[C@H]1C(=O)N[C@@H](C(C)C)C(=O)N(C)CC(=O)N(C)[C@@H](CC(C)C)C(=O)N[C@@H](C(C)C)C(=O)N(C)[C@@H](CC(C)C)C(=O)N[C@@H](C)C(=O)N[C@H](C)C(=O)N(C)[C@@H](CC(C)C)C(=O)N(C)[C@@H](CC(C)C)C(=O)N(C)[C@@H](C(C)C)C(=O)N1C [Cyclosporin D] | 41.6 | – |
| CC(C)=CCc1c(O)ccc(-c2coc3cc(O)cc(O)c3c2=O)c1O [Licoisoflavone A] | 0 | – |
| CC(C)CCC[C@@H](C)[C@H]1CC[C@H]2[C@@H]3CCC4=CC(=O)CC[C@]4(C)[C@H]3CC[C@]12C [Cholestenone] | 3.3 | – |
| COc1cc2c(cc1OC)OC(C)(C)C=C2 [Precocene II] | 11.1 | – |
| C=C1[C@H](O)C[C@H]2[C@@H](/C=C(/C)C(=O)[C@@]3(O)C[C@H](C)[C@H](O)[C@@H]3[C@H]1O)C2(C)C [7beta-Hydroxylathyrol] | 29.3 | – |

Entries of single compounds, looked up by structure. Values in the order: 229E Inhibition rate [%]	229E Inhibition rate (229E Inhibition rate, 24 h) [%]
`Oc1ccc(CCc2cc(O)cc(O)c2)cc1` [Dihydroresveratrol] is listed as 10.7	–
`C=C1[C@H](O)C[C@H]2[C@@H](/C=C(/C)C(=O)[C@@]3(O)C[C@H](C)[C@H](O)[C@@H]3[C@H]1O)C2(C)C` [7beta-Hydroxylathyrol] is listed as 29.3	–
`CCCCCCCCCCCCCC1=C(O)C(=O)C=C(O)C1=O` [Rapanone] is listed as 9	–
`CC(C)(CO)[C@@H](O)C(=O)NCCC(=O)O` [D-Pantothenic acid (hemicalcium salt)] is listed as –	22.5
